For part of these data: At least one result comes from cells or an extract, where the contact may be indirect. For part of these data: Negatives hold for the conditions tested. For part of these data: A weaker result is weaker than the reference pair of the same experiment. For part of these data: Tags and fusion partners may be left off the protein sequences shown. For part of these data: Construct, isoform or probe ends are uncertain for at least one entry.
Columns and labels:
[1] = test system: nuclear motif I factor (tobacco leaf nuclear extract) (Nicotiana tabacum); test: competition with a labelled probe; details: protein in an extract
[2] = target: truncated TAF-1 (p5a product from Met-22) (Nicotiana tabacum) (UniProt Q99142); test: EMSA; details: protein in a lysate after overexpression
[3] = target: T1, truncated TAF-1 (35S:5a partial cDNA) (Nicotiana tabacum) (UniProt Q99142); test: activity in cells; details: -ABA, vector control 550, protein details: 35S promoter effector plasmid in pMON505, variant of motif I WT tetramer, only the site is given, counted as no effect
T1 sequence: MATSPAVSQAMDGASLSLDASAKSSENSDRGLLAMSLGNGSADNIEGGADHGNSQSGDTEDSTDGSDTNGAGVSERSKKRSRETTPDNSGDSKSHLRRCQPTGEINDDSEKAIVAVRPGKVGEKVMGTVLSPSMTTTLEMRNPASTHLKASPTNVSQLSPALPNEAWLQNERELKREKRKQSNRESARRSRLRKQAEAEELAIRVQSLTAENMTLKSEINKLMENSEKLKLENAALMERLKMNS

[4] = about same as truncated TAF-1, variant of motif I WT tetramer

| Sequence | binding result [1, 4] | binding result ([2]; variant of motif I WT tetramer) | other results |
| --- | --- | --- | --- |
| GTACGTGGCGGTACGTGGCGGTACGTGGCGGTACGTGGCG (double strand) [motif I WT tetramer] |  |  | binding result ([1]; competes complex I at 300-fold molar excess, label: fill-in labelled): binds |
| GTACGTCCCGGTACGTCCCGGTACGTCCCGGTACGTCCCG (double strand) [M4 tetramer] | no binding | no binding |  |
| GTACCAGGCGGTACCAGGCGGTACCAGGCGGTACCAGGCG (double strand) [M3 tetramer] | no binding | no binding |  |
| GCCACGTGGCGCCACGTGGCGCCACGTGGCGCCACGTGGC (double strand) [PA perfect palindrome (G-box) tetramer] |  |  | binding result ([1]; high-affinity binding): binds |
| TGACTGTTCTTGACTGTTCTTGACTGTTCTTGACTGTTCT (double strand) [motif I mutant tetramer (MU)] |  |  | activity on this sequence (pmol MU/mg protein/min) [3]: 515; binding result ([1]; no competition at 300-fold molar excess, variant of motif I WT tetramer): no binding; binding result ([2]; no specific complexes, variant of motif I WT tetramer): no binding |
| GTTGGTGGCGGTTGGTGGCGGTTGGTGGCGGTTGGTGGCG (double strand) [M2 tetramer] | no binding | no binding |  |
| TTCGGCCACGTCACCAATCCGTTCGGCCACGTCACCAATCCGTTCGGCCACGTCACCAATCCGTTCGGCCACGTCACCAATCCG (double strand) [wheat histone H3 hex tetramer (4H1)] |  |  | binding result [2]: binds |
| CAACGTGGCGCAACGTGGCGCAACGTGGCGCAACGTGGCG (double strand) [M1 tetramer] | binds |  |  |
| GTACGTGGGCGTACGTGGGCGTACGTGGGCGTACGTGGGC (double strand) [M5 tetramer] | binds more weakly |  | binding result ([2]; severely reduced binding, slightly less effective competitor than WT, variant of motif I WT tetramer): binds more weakly |

Reference: US5362864, “Trans-activating factor-1” (The Trustees of the Rockefeller University)
